Drawing on PubChem BioAssay AID2685 (National Center for Advancing Translational Sciences (NCATS), 2010), this text covers cell number change and AC50 for 36 molecules.

This is one part of the list. Further columns of the screen follow, without active or inactive calls. Most of these compounds were active or inconclusive in the main read-out, so they are no random draw. The note in brackets gives the kind of curve behind each potency; many fits are weak.

The assay in a line: qHTS Assay for Lipid Storage Modulators in Drosophila S3 Cells.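 As to cell number change: cells counted by Cell Tracker Red CMTPX staining in the red channel.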 The settings on record: BODIPY lipid droplet fluorescence, 18-24 h; for cell number change: measured here: cell count max response, cells fed with added oleic acid. The method, boiled down:
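Drosophila S3 cells got compounds at several concentrations plus oleic acid (400 uM solution). Laser-scanning cytometry with 488 nm excitation read lipid droplets at 500-530 nm and cells at 575-640 nm. Percent activity was relative to 20 uM Triacsin C.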
For orientation: In qHTS, concentration-response curves come from the screen itself.

Where [1] appears, read: measured here: cell number channel AC50, cells fed with added oleic acid.
Where [2] appears, read: measured here: lipid fluorescence (Fed channel) AC50, cells fed with added oleic acid.

One may read the AC50 as the concentration giving half of the maximal activity seen. Lower therefore signals activity at low concentration. For the molecule `CC(=O)c1ccc(NC(=S)Nc2ccc3[nH]c(=O)[nH]c3c2)cc1`, the cell number change was -72.2%. In addition, the AC50 under setting [1] is 11.6 µM [falling, partial curve, poor fit]. Moreover, the AC50 under setting [2] is 29.1 µM [falling, partial curve, poor fit]. Regarding `C=CCn1c(-c2cc(OC)c(OC)c(OC)c2)n[nH]c1=S`, the AC50 is 6.51 µM [rising, single point] under setting [1] and 6.51 µM [rising, single point] under setting [2]. In the case of `O=C(NCC1CCCO1)c1ccccc1-c1nc(-c2ccc(F)cc2)no1` (stereo not given), the cell number change was determined as 16.7%.

With `CC1CCC2(CC1)NC(=O)N(CC(=O)c1ccc[nH]1)C2=O` (stereo not given), the cell number change is -21.4%. Under setting [1], the AC50 was 0.103 µM [falling, full curve, poor fit]. Take `Cc1ccc2c(c1)c1c3n2CC(=C2C(=O)OC(C)(C)OC2=O)NC3CCC1` (stereo not given): the AC50 under setting [1] is 6.51 µM [rising, single point].

For `CS(=O)(=O)N1CCc2cc(S(=O)(=O)N3CCN(Cc4ccc5c(c4)OCO5)CC3)ccc21`, the cell number change is -14.4%. In addition, the AC50 under setting [2] was 4.11 µM [rising, partial curve]. In the case of `COc1ccc(-c2nc(NC(=O)c3ccc(OCC(=O)N4CCOCC4)c(OC)c3)sc2C)cc1`, the cell number change is 39.5%. Besides, the half-maximal activity concentration (AC50) under setting [1] was 2.06 µM [rising, full curve]. The AC50 under setting [2] was 0.116 µM [rising, full curve, poor fit].

On to `Cc1ccc(N(CC(=O)NCc2ccco2)S(=O)(=O)c2ccccc2)cc1`, for which the cell number change was -23.8%. Also, under setting [2], the AC50 is 29.1 µM [falling, single point].

With `Cc1ccc(S(=O)(=O)N2CCC(C(=O)O)CC2)cc1C(=O)O`, the cell number change was determined as 1.16%. In the case of `CCOC(=O)[C@H]1[C@H]2COc3ccc(C)cc3[C@@H]2N2C(=O)c3ccc(C)cc3NC(=O)[C@@]12C`, the cell number change was -29.9%. For the same molecule, under setting [1], the AC50 was 0.326 µM [falling, full curve, poor fit].

With `COc1ccc(C(=O)NC2CCN(C(=S)Nc3ccccc3C)CC2)cc1`, the cell number change was -52%. In addition, the AC50 under setting [1] was 14.6 µM [falling, partial curve, poor fit]. Also, the AC50 under setting [2] was 32.6 µM [falling, partial curve, poor fit]. For the molecule `Cc1cc(C)nc(NNC2=CC(=O)CC(C)(C)C2)n1`, the cell number change stood at 23.5%. In addition, the AC50 under setting [2] is 2.06 µM [rising, partial curve]. On to `CCCCN(C(=O)C(CCSC)N1C(=O)c2ccccc2C1=O)c1c(N)n(CCC)c(=O)[nH]c1=O` (stereo not given), for which the cell number change amounted to 0.55%. In addition, the half-maximal activity concentration (AC50) under setting [2] is 2.31 µM [rising, single point]. As to `Cc1ccccc1N(CC(=O)NCC1CCCO1)C(=O)C1(C)CC(=O)N=C2C=CC=CN21` (stereo not given), the cell number change was -88.7%. The AC50 under setting [1] is 13 µM [falling, partial curve]. Also, under setting [2], the AC50 is 16.4 µM [falling, partial curve]. With `CN1CCN(c2nc3c(c(=O)[nH]c(=O)n3C)n2CCCSc2ncccn2)CC1`, the cell number change was 15.7%. Turning to `Clc1ccc(-c2csc(=Nc3cccnc3)n2CCCn2ccnc2)cc1Cl`, the cell number change is 13.7%. Further, under setting [2], the AC50 was 0.103 µM [rising, full curve, poor fit]. `O=C1Cc2ccccc2C(=O)N1c1ccccc1`: the AC50 under setting [2] was 29.1 µM [falling, single point]. `COc1ccnc(N2CCN(c3cccc(C(F)(F)F)c3)CC2)c1C#N`: the cell number change was found to be 27.7%. Moreover, the AC50 under setting [2] was 0.103 µM [rising, full curve, poor fit].

Turning to `CCc1ccc2[nH]c(=O)c(C(c3nnnn3Cc3ccco3)N3CCC(C)CC3)cc2c1` (stereo not given), the cell number change was -21.5%. In the case of `CN1CCN(NC(=O)c2ccccc2F)CC1`, under setting [2], the concentration at half-maximal activity (AC50) was 0.231 µM [falling, full curve]. As for `COc1cc(/C=C(\C#N)c2[nH]nc(N)c2C#N)cc(OC)c1O`, the cell number change is -0.668%. Further, the AC50 under setting [1] is 0.651 µM [falling, single point]. For the molecule `COc1cc(NC(=O)c2ccc(OC)c([N+](=O)[O-])c2)ccc1NC(=O)c1ccco1`, the cell number change was -58.4%. Besides, the AC50 under setting [1] was 29.1 µM [falling, single point]. The AC50 under setting [2] was 18.4 µM [falling, single point]. Regarding `CC(C)CC(=O)Nc1ccccc1-c1nnn(CC(=O)N2CCOCC2)n1`, the cell number change stood at 123%. For the same molecule, the AC50 under setting [1] was 23.1 µM [rising, partial curve]. For the same molecule, under setting [2], the AC50 was 1.16 µM [rising, full curve, poor fit]. Take `COC(=O)c1c(NC(=O)Cc2cccs2)sc(C)c1C`: the cell number change is 11.2%. Besides, the AC50 under setting [1] was 0.0731 µM [rising, full curve, poor fit]. Under setting [2], the AC50 was 0.092 µM [rising, full curve].

For `COc1ccccc1CCCNC(=O)C1CCC(=O)N(CCCN2CCCC2=O)C1` (stereo not given), the cell number change stood at 21.8%. Further, under setting [2], the half-maximal activity concentration (AC50) was 16.4 µM [rising, single point]. As to `Cc1ccc(S(=O)(=O)NCc2nc3nc(C)cc(C)n3n2)c(C)c1`, the cell number change was determined as 8.07%. Further, the concentration at half-maximal activity (AC50) under setting [2] was 6.51 µM [falling, partial curve]. Turning to `CCCC(=O)Nc1ccc(C(=O)COC(=O)c2cc(C)oc2C)cc1`, the cell number change is 6.34%. `O=C(NC1CC1)C1=C[C@H](c2ccc(Br)cc2)C[C@H](OCc2ccc(CO)cc2)O1`: the cell number change came to 19.6%. Also, under setting [2], the AC50 was 5.8 µM [rising, full curve]. For the molecule `CCC(=O)Nc1cccc(NC(=S)NC(=O)c2cccs2)c1`, the cell number change was 6.97%. Besides, the AC50 under setting [2] was 2.59 µM [rising, partial curve]. For the molecule `Cc1ccc(C)c(NC(=O)Cc2csc(-c3ccccc3)n2)c1`, the AC50 is, setting by setting: under setting [1], 2.31 µM [rising, partial curve]; under setting [2], 6.51 µM [rising, single point]. Consider `CC(NC(=O)COc1ccccc1)C(=O)N1CCN(c2ccccc2)CC1` (stereo not given), for which the cell number change was -1.51%. Also, under setting [2], the AC50 was 32.6 µM [falling, single point]. As for `CCOC(=O)C1(Cc2cccc(F)c2)CCN(Cc2cn(CC)nc2C)CC1`, the cell number change came out at 20.8%. Besides, the AC50 under setting [2] was 29.1 µM [rising, single point]. Consider `Cc1cc(C(=O)Nc2ccccc2Cl)n(-c2ccccc2)n1`, for which the AC50 was 6.51 µM [rising, single point] under setting [1] and 6.51 µM [rising, single point] under setting [2]. Take `CNC(=S)N1CCC(n2cnc3ccccc32)CC1`: the cell number change is -16.5%. The AC50 under setting [2] is 6.51 µM [falling, full curve, poor fit]. Take `COc1cc(C(=O)NC(=S)Nc2nccs2)cc(OC)c1OC`: under setting [1], the AC50 is 0.58 µM [rising, single point]. `NNC(=O)CNC(c1ccccc1)c1cc(Br)ccc1NC(=O)c1cccc(Cl)c1` (stereo not given): the AC50 is, setting by setting: under setting [1], 1.03 µM [rising, full curve, poor fit]; under setting [2], 1.46 µM [rising, partial curve].
